Test results taken from paper PMC2691592.
These are yes or no findings as the source states them, for the method shown. Binding seen in cells or lysates may run through a third protein. Some entries that bind do so weakly or less than the wild type. For some of these results: Where a sequence is shown, tags or fusion partners need not be part of it. Blank lines part the entries; values can stand above or below the binder they belong to.

By UniProt entry, the sequences of proteins in these tests, tags left out.
UniProt P46580: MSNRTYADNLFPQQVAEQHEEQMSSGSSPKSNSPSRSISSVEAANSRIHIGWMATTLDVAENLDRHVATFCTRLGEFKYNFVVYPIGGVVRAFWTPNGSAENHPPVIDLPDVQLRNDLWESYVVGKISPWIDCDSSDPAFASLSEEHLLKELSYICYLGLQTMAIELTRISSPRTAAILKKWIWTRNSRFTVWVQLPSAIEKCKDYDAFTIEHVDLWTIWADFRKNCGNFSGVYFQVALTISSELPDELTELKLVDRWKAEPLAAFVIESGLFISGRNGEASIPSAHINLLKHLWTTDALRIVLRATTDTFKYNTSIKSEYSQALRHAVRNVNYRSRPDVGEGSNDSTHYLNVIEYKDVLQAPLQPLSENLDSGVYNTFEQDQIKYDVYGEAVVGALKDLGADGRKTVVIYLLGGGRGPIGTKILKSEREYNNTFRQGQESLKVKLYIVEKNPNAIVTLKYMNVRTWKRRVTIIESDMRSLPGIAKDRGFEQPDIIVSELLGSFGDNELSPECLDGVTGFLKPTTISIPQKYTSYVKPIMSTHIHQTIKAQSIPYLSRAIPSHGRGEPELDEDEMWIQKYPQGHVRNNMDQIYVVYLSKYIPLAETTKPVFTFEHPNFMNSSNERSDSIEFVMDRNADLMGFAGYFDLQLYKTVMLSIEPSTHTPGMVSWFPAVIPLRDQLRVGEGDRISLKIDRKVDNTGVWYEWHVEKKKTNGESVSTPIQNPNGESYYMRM

Tests used:
[1] = molecular target: T1, GST-CEP-1 (C. elegans) (UniProt Q20646); assay: pull-down; purified GST fusion protein immobilised on glutathione-Sepharose beads, incubated with [35S]methionine-labeled in vitro translated proteins at 4°C for more than 2 h; SDS-PAGE and autoradiography; only the target purified
T1 sequence: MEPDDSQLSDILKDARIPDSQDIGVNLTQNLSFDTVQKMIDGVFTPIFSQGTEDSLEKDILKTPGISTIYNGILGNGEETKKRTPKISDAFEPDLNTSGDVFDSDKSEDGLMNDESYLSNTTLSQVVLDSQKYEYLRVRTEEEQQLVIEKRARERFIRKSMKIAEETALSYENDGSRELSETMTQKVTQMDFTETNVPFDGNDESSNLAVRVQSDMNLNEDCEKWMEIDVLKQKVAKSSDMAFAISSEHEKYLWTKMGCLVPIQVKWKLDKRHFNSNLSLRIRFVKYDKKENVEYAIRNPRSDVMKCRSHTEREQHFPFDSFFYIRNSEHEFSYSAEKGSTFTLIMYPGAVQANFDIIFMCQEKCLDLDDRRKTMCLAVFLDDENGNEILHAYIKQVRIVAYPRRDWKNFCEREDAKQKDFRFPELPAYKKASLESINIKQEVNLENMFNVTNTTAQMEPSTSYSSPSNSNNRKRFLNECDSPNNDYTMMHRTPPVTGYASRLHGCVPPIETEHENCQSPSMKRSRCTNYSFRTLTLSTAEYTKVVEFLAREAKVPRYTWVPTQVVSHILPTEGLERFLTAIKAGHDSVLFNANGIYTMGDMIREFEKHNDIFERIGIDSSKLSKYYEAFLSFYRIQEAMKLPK

[2] = molecular target: GST-PRMT-5 (C. elegans) (UniProt P46580); assay: as above

binding [1]: binds
B1: CBP-1(771–1285) (domain or fragment, UniProt P34545 771-1285)
chain: VSAMLQPKTEPMDDQNTDSLSSRPPTAIGFGGSSSSTPAPIMNGIVKKEEDPEESSNQAPPSVKDTKDGVAESKPKEQQAKREPTPPPTEDTVFSQEDLIKFLLPVWEKLDKSEDAAPFRVPVDAKLLNIPDYHEIIKRPMDLETVHKKLYAGQYQNAGQFCDDIWLMLDNAWLYNRKNSKVYKYGLKLSEMFVSEMDPVMKSMGYCCAKKLAFTPLSLFCYGAAMCTIAREQQYWVFEQSSTQYNVTVTERYTYCQKCFDALPPEGISLSENPNDRNNMAPKTSFTEQKNSVIDYEPFERCKYCMRKWHRICALHDKKVYPEGFICECCRTAKKYQKPDNKYLASKLPHNKLSTFLEDRVNGFIKKQLQAEAHKYPVIIRTLCVQDKEAEVKAQMKQKYVESNQFPEKFPYRTKAVFAFEIIDGVEVCFFGLHVQEYGSACPAPNARRVYIAYLDSVHFFQPRELRTDVYHELLLGYLDYAKMLGYTMAHIWACPPSEGDDYIFHCHPPEQKIP
modifications: [35S]methionine-labeled

binding [2]: binds
binding [1]: binds
B2: CBP-1(1286–1770) (domain or fragment, UniProt P34545 1286-1770)
chain: KPKRLQDWYKKMLEKGVQEGSVVEFKDIYKQARDDNLTTPTQLPYFEGDFWPNVIEDCIREASNEEAQRKVKEDDDDGEDADGGLGGGDSGKKKSSKNKKNNLKKNAKMNKKKAGSITGNEVADKLYSQFEKHKEVFFTIRLVSLQNEPAVLAKPISDPDGLMQSDMMDGRDTFLTKAREEHWEFSSLRRAKYSTLCLAYSLHETDSKGMEYTCNKCSSPAVWHCQSCDDFDLCDGCKPTTQHPHEMEKIKSLIGGGEAGDSAAGGTRYESIQRCIASLVHACQCRDANCRRMSCHKMKRVVQHTKMCKKRINGTCPVCKQLIALCCYHAKHCTRDACTVPFCMNIRQKLAEQKRSQQRRADMMMRRRMEGLQSHVGGAAPTPSTVSNGTPSNAPTPPVSAGPGPAVKGGGVGQVQMQQHQGSHVGGSGPAGMGQPMNSFGGMPGMGLGPNAQNGPGLPGMNPQMNANQSRYMPNGPGLGQSGAP
modifications: [35S]methionine-labeled

binding [2]: binds
B3: CBP-1(1–320) (35S-labeled, in vitro translated) (domain or fragment, UniProt P34545 1-320)
chain: MDEPPSKKSRADSDYDSGLDALSALESLEAFPTSSKDTDVDNNPSTSAGGSGGPSGSTPHPQGTPQPAPSNNGGFNLQPGQSQPQQPPQNMGGGVNGSVLQELLMNPSQTSNNSPRPQAYPPGQQNAFNRSPMMPNGTPNMMSPPSMGRVPGPSPGGPQPPGPGQPQMRPGQPGMFQGDQQQQMMMGAQGQQFPGMMHRYPYAQGGPPPGAQGMPQGYPGVSRGGPTPGQPMGRGAMMNGAMPRSGPMPTQGRPGIPPNQQAMMQPMMTDRQFMQHGQYGQQRPEFMQQYGRPGGYPMMHQGMMMDSNGQPIRGPNQMMM
modifications: [35S]methionine-labeled
